## Library screen at single concentrations

Source: ChEMBL document CHEMBL3988442, “University of Dundee, Small-Polar-MMV Screening Library” (2021).

T. brucei: 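Whole-parasite assay of Trypanosoma brucei over 72 hours; the read-out is not stated. Tested at 30 µM. Higher reads as stronger inhibition (inferred: compounds with an IC50 in retests scored well above the rest). Values scatter widely below zero; nearly all retest evidence comes from the higher of the two concentrations used. Size under these conditions: about 64,000 compounds, about 940 of them at 50% or above in at least one test.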
Toxoplasma: 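Assay of Toxoplasma gondii numbers, read through their beta-galactosidase reporter with a colour substrate. Concentration: 10 µM. Higher reads as fewer parasites (inferred from which compounds were picked for retests). Size under these conditions: about 67,000 compounds, about 260 of them at 50% or above in at least one test.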

The filed quantity is “Percent Effect” (%).
The controls that fix the scale are not given in the record; negative values are as filed.
This is an unselected part of the compounds tested.
A dash means the value is not listed here; it may have been measured.

{"structure": "Cc1noc(C2CN(S(=O)(=O)C3CC3)Cc3ccnn3C2)n1", "stereo": "centres unmarked", "T. brucei": -6.254, "Toxoplasma": 6.019}
{"structure": "CC(C)CCN1CCN(C(=O)c2cccnc2-n2cncn2)CC1", "T. brucei": -38.39, "Toxoplasma": -0.885}
{"structure": "CC(Cc1ccc(C(F)(F)F)cc1)C(=O)N1CCCS1(=O)=O", "stereo": "centres unmarked", "T. brucei": -30.79, "Toxoplasma": 1.768}
{"structure": "O=C(NCCCn1cccn1)NCC(c1ccco1)N1CCCC1", "stereo": "centres unmarked", "Toxoplasma": -6.178}
{"structure": "CCn1cc(CNC(=O)c2nn(CC)cc2Br)cn1", "Toxoplasma": 7.721}
{"structure": "COC(=O)N1CCCC(C(=O)N2CCCCC2)C1", "stereo": "centres unmarked", "T. brucei": 6.08, "Toxoplasma": -0.05875}
{"structure": "O=C(O)C(F)(F)F.c1cnn(Cc2nnc3n2CCCN(CC2CCOCC2)C3)c1", "T. brucei": -33.8, "Toxoplasma": -11.7}
{"structure": "Cc1nc(CN2C[C@@H](CN3CCOCC3)[C@@H](CO)C2)c2ccccn12", "T. brucei": -0.05077, "Toxoplasma": -6.273}
{"structure": "CCn1nc2c(cc1=O)CN(CCOc1ccc(C#N)cc1)CC2", "T. brucei": -34.99, "Toxoplasma": 4.661}
{"structure": "Cc1ccc(N2CCN(C(=O)CCc3ccc(O)cc3)CC2=O)cc1", "T. brucei": -64.97, "Toxoplasma": 13.43}
{"structure": "O=C(NCC1CC1)c1cc2c(s1)CCN2C(=O)c1cccnc1", "T. brucei": 0.6066, "Toxoplasma": 3.832}
{"structure": "CCc1cc(NCCNc2cccnc2)n2nccc2n1", "T. brucei": -15.73, "Toxoplasma": -2.308}
{"structure": "Cc1cc(C(F)(F)F)cc(=O)n1CCn1cc(Cl)cn1", "Toxoplasma": -28}
{"structure": "COCCO[C@@H]1CCN(C(=O)c2ccc[nH]2)[C@H]1Cc1cnn(C)c1", "T. brucei": -18.14, "Toxoplasma": -11.03}
{"structure": "COc1ccc(CNC2CCN(CCc3ccncc3)CC2)cc1O", "T. brucei": 21.52, "Toxoplasma": 2.014}
{"structure": "O=C(Cc1cccs1)NCc1ccnc(OC2CCOCC2)c1", "T. brucei": 1.974, "Toxoplasma": 3.476}
{"structure": "Cc1ccccc1N1CCCN(C(=O)CCc2nncn2C)CC1", "T. brucei": -46.27, "Toxoplasma": -18.47}
{"structure": "Cn1cnc2cc(C(=O)NS(=O)(=O)c3ccc(F)cc3)ccc21", "T. brucei": -38.63, "Toxoplasma": 1.08}
{"structure": "CCOCC1c2c(ncn2C(C)C)CCN1C(=O)CC", "stereo": "centres unmarked", "Toxoplasma": -17.5}
{"structure": "COC(=O)N1CCC(Nc2cccc(F)c2C(C)=O)C1", "stereo": "centres unmarked", "T. brucei": -14.7, "Toxoplasma": -14.45}
{"structure": "CCn1c(=O)c2cc(S(N)(=O)=O)ccc2n(CC)c1=O", "T. brucei": -28.73, "Toxoplasma": -2.403}
{"structure": "CCOCCN1CCN(Cc2csc(-c3cnn(C)c3)n2)CC1", "T. brucei": 4.348, "Toxoplasma": -1.387}
{"structure": "Cc1cc(NS(=O)(=O)c2cccs2)ccc1-n1cccc1C(=O)O", "T. brucei": 14.44, "Toxoplasma": 2.093}
{"structure": "COc1ccccc1OCCCc1cncc(C(N)=O)c1", "T. brucei": -250.6, "Toxoplasma": 3.095}
{"structure": "CC(NC(=O)NCc1cccs1)c1ccc2c(c1)CCC(=O)N2", "stereo": "centres unmarked", "Toxoplasma": 8.831}
{"structure": "Cn1[nH]c(Br)c2/c(=N\\CCN)ncnc1-2", "T. brucei": 8.526, "Toxoplasma": -3.386}
{"structure": "Cc1cc(C)n(CC2CCCCN2C(=O)c2ccc(C(N)=O)cc2)n1", "stereo": "centres unmarked", "T. brucei": 5.303, "Toxoplasma": -5.115}
{"structure": "CN(C)C(=O)COCC1CN(CC2CCOCC2)Cc2ncn(C)c21", "stereo": "centres unmarked", "T. brucei": -29.8, "Toxoplasma": 5.941}
{"structure": "O[C@@H]1CN(c2cnc3ccccc3n2)CC[C@H]1c1ccc2c(c1)OCO2", "T. brucei": -17.33, "Toxoplasma": 20.57}

Repeated from the top, 4 entries:

structure	T. brucei	Toxoplasma
Cc1noc(C2CN(S(=O)(=O)C3CC3)Cc3ccnn3C2)n1 (centres unmarked)	-6.254	6.019
CC(C)CCN1CCN(C(=O)c2cccnc2-n2cncn2)CC1	-38.39	-0.885
CC(Cc1ccc(C(F)(F)F)cc1)C(=O)N1CCCS1(=O)=O (centres unmarked)	-30.79	1.768
O=C(NCCCn1cccn1)NCC(c1ccco1)N1CCCC1 (centres unmarked)	-	-6.178